Source: PubChem BioAssay AID1671190 (National Center for Advancing Translational Sciences (NCATS), 2021)
Out of some 580,000 compounds screened, about 6,100 (1.1%) were called active. Inconclusive means that the source gave no clear call. Such entries were picked first, then a sample of the others. Calls follow the shape of the dose curve; as a rule, active = well fitted inhibition curve with a large enough effect; inconclusive = small, poorly fitted or top-dose-only effect, or another doubt; inactive = no such curve, though single readings can be large or run the other way. A potency beside an inconclusive call is a rough fit, not a confirmed value.

Protein sequences, listed by entry. Tags and fused reporters are not part of them. Lines headed by an entry give the natural chain unless they say otherwise; changes in a name come on top.
UniProt P18054: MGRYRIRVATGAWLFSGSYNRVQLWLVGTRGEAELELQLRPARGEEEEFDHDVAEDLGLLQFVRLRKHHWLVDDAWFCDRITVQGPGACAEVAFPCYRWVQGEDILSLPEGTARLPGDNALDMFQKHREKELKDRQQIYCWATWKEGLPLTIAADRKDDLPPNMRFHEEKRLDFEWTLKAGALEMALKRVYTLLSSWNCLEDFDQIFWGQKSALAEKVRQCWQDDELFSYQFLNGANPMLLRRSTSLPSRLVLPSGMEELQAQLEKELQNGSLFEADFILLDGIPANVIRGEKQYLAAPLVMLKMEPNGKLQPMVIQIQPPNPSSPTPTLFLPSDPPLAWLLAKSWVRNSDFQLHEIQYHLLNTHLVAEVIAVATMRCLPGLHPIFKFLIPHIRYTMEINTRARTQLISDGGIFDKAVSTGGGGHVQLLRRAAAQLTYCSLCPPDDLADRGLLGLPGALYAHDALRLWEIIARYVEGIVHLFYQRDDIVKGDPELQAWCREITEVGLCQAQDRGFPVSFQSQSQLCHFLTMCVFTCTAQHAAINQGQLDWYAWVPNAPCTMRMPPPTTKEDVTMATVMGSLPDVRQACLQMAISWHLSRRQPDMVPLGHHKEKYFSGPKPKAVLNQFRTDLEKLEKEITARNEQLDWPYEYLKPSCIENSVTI

Each molecule was assayed against Polyunsaturated fatty acid lipoxygenase ALOX12 (Homo sapiens) (UniProt P18054) (assay: Primary qHTS assay for inhibitors of human arachidonate 12S-lipoxygenase (ALOX12): Round 2). Conditions: purified 12hLO, xylenol orange hydroperoxide absorbance; series mostly up to 108 µM.
Summary of the method: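 Purified human 12hLO (150 nM final) in 25 mM Hepes, 0.01% Triton X-100, pH 7.0 was preincubated 15 min at room temperature with compound. Then 40 uM arachidonic acid was added, 30 min. Hydroperoxide was read by Fe-XO absorbance ratio 573/405 nm.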
Potency is read from the fitted curve at half-maximal effect.

Question: How did the Potency turn out when `C[S+](=O)([O-])N1CC2(Cc3ccccc31)CN(C(=O)c1ccccc1Cl)C2` was run?
Answer: The Potency was “inactive”.

Question: `C=CCn1c(N)c(C(=O)NCCC2=CCCCC2)sc1=S` was tested. Which Potency did it give?
Answer: Its Potency is active: 17.8 µM.

Question: How did the Potency turn out when `Cc1ccc(S(=O)(=O)Cc2csc(N)n2)cc1` was run?
Answer: Its Potency is inconclusive: 0.501 µM [inhibitor, full curve, poor fit].

Question: With `Cc1cccc(N2CCN(CC(=O)NCC3CCCCC3)CC2)c1C` as the molecule, how does the Potency read?
Answer: Its Potency is active: 0.891 µM.

Question: With `O=C(CSc1nnc(-c2ccc(Cl)cc2)n1Cc1ccco1)c1cccs1` as the molecule, how does the Potency read?
Answer: The Potency was inconclusive: 15.8 µM [inhibitor, full curve, poor fit].

Question: With `CCOc1ccc(NS(=O)(=O)c2ccc3[nH]cc(C(=O)N4CCCC4)c(=O)c3c2)cc1` as the molecule, how does the Potency read?
Answer: The Potency was inconclusive: 50.1 µM [inhibitor, partial curve, poor fit].

Question: Which Potency does the source give for `Fc1ccccc1Nc1n[nH]c(=S)s1` here?
Answer: Its Potency is active: 25.1 µM.

Question: Which Potency does the source give for `CCN(CC)C(=O)CSc1nc(O)c(Cc2ccccc2)c(=O)n1-c1ccc(C)cc1` here?
Answer: Its Potency is inconclusive: 0.794 µM [inhibitor, full curve, poor fit].

Question: Which Potency does the source give for `O=C(Nc1cccc([N+](=O)[O-])c1)N1CCN(c2ccccc2)CC1` here?
Answer: The Potency was “inactive”.

Question: Which Potency does the source give for `CCc1nc2c(OCc3ccc(C(F)(F)F)cc3)cccn2c1N(C)C(=O)c1ccco1` here?
Answer: Its Potency is inconclusive: 35.5 µM [inhibitor, partial curve, poor fit].

Question: `COCCNC(=S)N/N=C(\C)c1ccccc1F` was tested. Which Potency did it give?
Answer: The Potency was inconclusive: 44.7 µM [inhibitor, partial curve, poor fit].

Question: How did the Potency turn out when `COc1ccc(-c2nc(=S)[nH][nH]2)cc1` was run?
Answer: Its Potency is inconclusive: 15.8 µM [inhibitor, partial curve, poor fit].

Question: For `CN1CCCN(Cc2nc(-c3cccc(C(F)(F)F)c3)no2)CC1`, which Potency is on record?
Answer: Its Potency is “inactive”.

Question: How did the Potency turn out when `COc1ccc(N(CC(=O)N2CCOCC2)S(C)(=O)=O)cc1Cl` was run?
Answer: The Potency was inconclusive: 25.1 µM [inhibitor, single point].

Question: How did the Potency turn out when `Cc1ccc(NC(=O)COC(=O)c2nc(-c3ccccc3)oc2C)c(C)c1` was run?
Answer: The Potency was inconclusive: 50.1 µM [inhibitor, single point].

Question: `COC(=O)C1Cc2c([nH]c3ccccc23)CN1C(C)=O` (stereo not given) was tested. Which Potency did it give?
Answer: Its Potency is inconclusive: 50.1 µM [inhibitor, partial curve, poor fit].

Question: For `CC(C)C(=O)Nc1cc(S(=O)(=O)N2CCOCC2)ccc1N1CCCCC1`, which Potency is on record?
Answer: The Potency was inconclusive: 44.7 µM [inhibitor, partial curve, poor fit].

Question: How did the Potency turn out when `COC(=O)[C@@]12CCCCN1[C@H](c1ccc(SC3CCCCC3)c(OC)c1)[C@@H]1C(=O)N(C)C(=O)[C@@H]12` was run?
Answer: The Potency was inconclusive: 79.4 µM [inhibitor, single point].

Question: For `CCNC(=O)N(C1CC1)C1CCOC2(CCN(C(=O)Cc3cccc(C)c3)CC2)C1` (stereo not given), which Potency is on record?
Answer: The Potency was “inactive”.

Question: `O=C(/C=C/c1ccc(Cl)cc1)c1cc(Cl)cc(Cl)c1O` was tested. Which Potency did it give?
Answer: The Potency was active: 3.55 µM.

Question: For `O=C(NC(=S)Nc1ccccc1Br)C1CCCC1`, which Potency is on record?
Answer: The Potency was inconclusive: 35.5 µM [inhibitor, single point].

Question: Which Potency does the source give for `COc1ccc(Cn2nnnc2C(c2ccccn2)N2CCN(c3cc(Cl)ccc3C)CC2)cc1` (stereo not given) here?
Answer: The Potency was “inactive”.

Question: How did the Potency turn out when `NCCCCN1CCC(C(N)=O)CC1` was run?
Answer: Its Potency is inconclusive: 141 µM [inhibitor, single point].

Question: `CCCc1nnc(NC(=O)CN2C(=O)c3ccccc3C2=O)s1` was tested. Which Potency did it give?
Answer: The Potency was inconclusive: 39.8 µM [inhibitor, partial curve, poor fit].

Question: `COC(=O)[C@@]12CCCN1[C@H](c1ccc(-c3ccc(F)cc3)c(OC)c1)[C@H]1C(=O)N(C)C(=O)[C@H]12` was tested. Which Potency did it give?
Answer: The Potency was inconclusive: 28.2 µM [inhibitor, partial curve, poor fit].

Question: With `CC1(C(=O)NS(=O)(=O)c2cccc(C#N)c2)CCN1C(=O)CCc1ccccc1` (stereo not given) as the molecule, how does the Potency read?
Answer: Its Potency is inconclusive: 17.8 µM [inhibitor, partial curve].

Question: `CC(=O)c1cccc(NC(=O)Nc2c(C)n(C)n(-c3ccccc3)c2=O)c1` was tested. Which Potency did it give?
Answer: Its Potency is inconclusive: 63.1 µM [inhibitor, partial curve, poor fit].

Question: For `CCN1CCc2nc(N)oc2CC1`, which Potency is on record?
Answer: Its Potency is “inactive”.

Question: How did the Potency turn out when `CCc1ccc(NC(=O)NCc2nc(-c3ccccc3)oc2C)cc1` was run?
Answer: The Potency was “inactive”.

Question: `CCN(CC)S(=O)(=O)c1cccc(NC(=O)c2ccc(Sc3nncn3C)c([N+](=O)[O-])c2)c1` was tested. Which Potency did it give?
Answer: Its Potency is “inactive”.

Question: For `COc1cc(C)c(C)cc1S(=O)(=O)n1c(C)nc2ccccc21`, which Potency is on record?
Answer: Its Potency is inconclusive: 44.7 µM [inhibitor, partial curve, poor fit].

Question: `COC(=O)c1c(C)[nH]c(C(=O)C(C)OC(=O)c2cccc(F)c2)c1C` (stereo not given) was tested. Which Potency did it give?
Answer: The Potency was inconclusive: 89.1 µM [inhibitor, partial curve, poor fit].

Question: For `CC(C)C[C@@H](CN1CCC[C@@H]1CN1C(=O)C(=O)NC[C@@H]1Cc1ccccc1)N1C[C@H](Cc2ccc(O)cc2)N(CCc2ccccc2)C(=O)C1=O`, which Potency is on record?
Answer: The Potency was inconclusive: 56.2 µM [inhibitor, partial curve, poor fit].

Question: `COc1cccc(-n2nnc3c(=O)n(Cc4ccc(C)cc4)cnc32)c1` was tested. Which Potency did it give?
Answer: The Potency was “inactive”.

Question: `CC1CCN(C(=O)CSc2nc3ccccc3c(=O)n2Cc2ccc3c(c2)OCO3)CC1` was tested. Which Potency did it give?
Answer: Its Potency is “inactive”.

Question: `CCSc1ccccc1C(=O)Nc1nc2ccccc2c(=O)[nH]1` was tested. Which Potency did it give?
Answer: Its Potency is inconclusive: 100 µM [inhibitor, single point].

Question: `CC(C)(C)C(=O)N1CC[C@@H](CC(=O)O)[C@@H](CCN2CCOCC2)C1` was tested. Which Potency did it give?
Answer: The Potency was inconclusive: 28.2 µM [inhibitor, partial curve, poor fit].

Question: For `CCOc1cc(C2CC(=O)N3CN(c4ccccc4)CSC3=C2C#N)cc(Br)c1O` (stereo not given), which Potency is on record?
Answer: The Potency was active: 1.78 µM.

Question: With `O=C(NCCCl)Nc1ccccc1OCCOc1ccccc1NC(=O)NCCCl` as the molecule, how does the Potency read?
Answer: Its Potency is inconclusive: 35.5 µM [inhibitor, partial curve, poor fit].

Question: For `COCCn1cnc2ccc(-c3ccc(F)cc3OC)nc2c1=O`, which Potency is on record?
Answer: Its Potency is “inactive”.

Question: For `CCOc1ccccc1N1CCN(C(=S)NC(=O)C23CC4CC(CC(C4)C2)C3)CC1`, which Potency is on record?
Answer: The Potency was inconclusive: 44.7 µM [inhibitor, partial curve, poor fit].

Question: Which Potency does the source give for `COc1cccc(C(=O)/C=C/c2ccc(SC)cc2)c1` here?
Answer: Its Potency is inconclusive: 50.1 µM [inhibitor, partial curve, poor fit].

Question: Which Potency does the source give for `Cc1[nH]c2ccccc2c1C(=O)C(=O)Nc1ccccc1CN(C)C` here?
Answer: The Potency was “inactive”.

Question: `O=C(c1sccc1Cl)N1CCN(Cc2ccc3c(c2)OCO3)CC1` was tested. Which Potency did it give?
Answer: The Potency was inconclusive: 100 µM [inhibitor, partial curve, poor fit].

Question: `Oc1ccc(-c2[nH]ncc2-c2ccc(Cl)cc2)c(O)c1` was tested. Which Potency did it give?
Answer: The Potency was inconclusive: 39.8 µM [inhibitor, partial curve, poor fit].

Question: Which Potency does the source give for `O=C(O)c1ccc2nc(CCl)[nH]c2c1` here?
Answer: Its Potency is inconclusive: 7.08 µM [inhibitor, partial curve, poor fit].

Question: For `O=C(O/N=C/C1=C(Cl)c2ccccc2CC1)c1ccc(F)cc1`, which Potency is on record?
Answer: The Potency was inconclusive: 0.199 µM [inhibitor, full curve, poor fit].

Question: `CC(C)Oc1ccc(CN2CCc3nc(Nc4ccc5c(c4)OCCO5)ncc3C2)cc1` was tested. Which Potency did it give?
Answer: The Potency was inconclusive: 63.1 µM [inhibitor, partial curve, poor fit].

Question: For `CNc1nccc(-c2ccc(Cl)cc2)c1C#N`, which Potency is on record?
Answer: Its Potency is inconclusive: 79.4 µM [inhibitor, partial curve, poor fit].

Question: For `CC(C)CCN1CCC2(CC1)NC(=O)c1ccccc1O2`, which Potency is on record?
Answer: Its Potency is inconclusive: 28.2 µM [inhibitor, full curve].

Question: For `COc1ccc(CCNC(=O)C(C)OC(=O)c2nsc(Cl)c2Cl)cc1OC` (stereo not given), which Potency is on record?
Answer: Its Potency is inconclusive: 141 µM [inhibitor, partial curve, poor fit].

Question: How did the Potency turn out when `Cc1ccc(CNC(=O)c2ccccc2SCC(=O)NCC2CCCCC2)cc1` was run?
Answer: The Potency was “inactive”.

Question: `Brc1ccccc1-c1nnc(CN2CCc3ccccc3C2)o1` was tested. Which Potency did it give?
Answer: The Potency was inconclusive: 35.5 µM [inhibitor, partial curve, poor fit].

Question: How did the Potency turn out when `O=C(CCn1ccc2ccccc21)NC1CCCc2ccccc21` (stereo not given) was run?
Answer: Its Potency is inconclusive: 89.1 µM [inhibitor, single point].

Question: How did the Potency turn out when `CCOC(=O)C1CCCN(c2nc3ccccc3nc2C(C#N)C(=O)NCc2ccccc2)C1` (stereo not given) was run?
Answer: The Potency was “inactive”.

Question: `O=C(O)CCCN1C(=O)/C(=C/c2cn(-c3ccccc3)nc2-c2cccs2)SC1=S` was tested. Which Potency did it give?
Answer: The Potency was inconclusive: 39.8 µM [inhibitor, partial curve, poor fit].

Question: With `COc1cccc(CNC(=O)c2cccc(OC)c2)c1` as the molecule, how does the Potency read?
Answer: The Potency was “inactive”.

Question: How did the Potency turn out when `Cc1nc2nc(Cc3ccccc3)[nH]n2c(=O)c1Cl` was run?
Answer: Its Potency is inconclusive: 70.8 µM [inhibitor, partial curve, poor fit].

Question: Which Potency does the source give for `Cc1c(Cl)cnc(NC(=O)COC(=O)C(NC(=O)c2ccco2)C(C)C)c1Cl` (stereo not given) here?
Answer: Its Potency is inconclusive: 39.8 µM [inhibitor, partial curve, poor fit].

Question: `O=C(COC(=O)C1CC(O)CN1C(=O)Oc1ccccc1)c1ccc(Br)cc1` (stereo not given) was tested. Which Potency did it give?
Answer: The Potency was inconclusive: 50.1 µM [inhibitor, single point].

Question: For `O=C(CN1CCOC1=O)N[C@@H]1[C@@H](Cc2ccccc2)[C@H]2OCC[C@@H]12`, which Potency is on record?
Answer: The Potency was “inactive”.

Question: Which Potency does the source give for `Cc1cc2nnc(SCC(=O)Nc3ccc(Cl)cc3)n2c(N)n1` here?
Answer: Its Potency is inconclusive: 35.5 µM [inhibitor, partial curve, poor fit].

Question: `COc1cccc(N2CCN(C(C(=O)O)c3c[nH]c4ccc(NC(=O)CCC(=O)O)cc34)CC2)c1` (stereo not given) was tested. Which Potency did it give?
Answer: The Potency was inconclusive: 6.31 µM [inhibitor, partial curve, poor fit].

Question: For `O=C(O)C(c1ccccc1)N1C(=O)c2cccc3cccc(c23)C1=O` (stereo not given), which Potency is on record?
Answer: Its Potency is inconclusive: 70.8 µM [inhibitor, single point].

Question: With `Cc1cc(C)nc(Cn2nc(CC3CCNCC3)n(-c3ccccc3)c2=O)n1` as the molecule, how does the Potency read?
Answer: The Potency was inconclusive: 15.8 µM [inhibitor, partial curve, poor fit].
